Measurements: the supplement of paper PMC10849652
This is one part of the list.

The chains behind the UniProt entries cited, without tags or fusion partners. Where a name states a change or a piece, a line headed by the entry shows the natural chain unless it says otherwise.
UniProt Q9BQI0: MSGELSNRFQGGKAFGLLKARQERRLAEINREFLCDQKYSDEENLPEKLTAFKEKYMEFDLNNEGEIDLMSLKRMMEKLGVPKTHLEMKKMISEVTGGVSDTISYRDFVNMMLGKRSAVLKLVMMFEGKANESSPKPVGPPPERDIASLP
UniProt Q8N157: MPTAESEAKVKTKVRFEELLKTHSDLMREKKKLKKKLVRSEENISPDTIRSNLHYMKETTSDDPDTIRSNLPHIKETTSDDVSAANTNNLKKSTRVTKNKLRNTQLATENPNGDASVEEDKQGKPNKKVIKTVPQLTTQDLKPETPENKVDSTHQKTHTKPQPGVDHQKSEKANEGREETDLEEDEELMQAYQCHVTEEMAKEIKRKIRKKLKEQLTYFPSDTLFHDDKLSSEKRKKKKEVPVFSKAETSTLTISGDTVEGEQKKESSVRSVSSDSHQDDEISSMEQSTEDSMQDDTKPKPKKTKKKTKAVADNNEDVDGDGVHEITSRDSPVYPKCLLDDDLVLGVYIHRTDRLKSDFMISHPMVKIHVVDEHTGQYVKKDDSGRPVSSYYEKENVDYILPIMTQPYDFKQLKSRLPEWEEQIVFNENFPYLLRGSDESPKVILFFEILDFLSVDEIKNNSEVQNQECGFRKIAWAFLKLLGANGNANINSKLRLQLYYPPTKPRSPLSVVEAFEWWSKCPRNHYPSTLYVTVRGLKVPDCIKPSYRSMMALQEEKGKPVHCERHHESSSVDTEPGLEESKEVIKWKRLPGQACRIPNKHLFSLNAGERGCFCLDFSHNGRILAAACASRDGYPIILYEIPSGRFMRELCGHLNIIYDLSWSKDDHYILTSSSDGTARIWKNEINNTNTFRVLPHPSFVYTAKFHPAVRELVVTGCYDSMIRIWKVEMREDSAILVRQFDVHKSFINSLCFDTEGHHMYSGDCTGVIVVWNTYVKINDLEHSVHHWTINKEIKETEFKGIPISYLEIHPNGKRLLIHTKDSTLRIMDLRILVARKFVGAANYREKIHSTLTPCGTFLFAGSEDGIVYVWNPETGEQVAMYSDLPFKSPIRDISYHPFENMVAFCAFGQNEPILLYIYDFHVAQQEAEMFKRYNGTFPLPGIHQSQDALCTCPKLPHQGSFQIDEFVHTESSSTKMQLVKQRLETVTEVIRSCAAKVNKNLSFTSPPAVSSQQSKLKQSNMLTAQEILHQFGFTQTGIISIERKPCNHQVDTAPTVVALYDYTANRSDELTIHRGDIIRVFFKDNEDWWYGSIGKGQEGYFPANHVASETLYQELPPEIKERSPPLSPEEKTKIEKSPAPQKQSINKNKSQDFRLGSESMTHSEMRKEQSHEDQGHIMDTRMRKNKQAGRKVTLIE
UniProt Q12904: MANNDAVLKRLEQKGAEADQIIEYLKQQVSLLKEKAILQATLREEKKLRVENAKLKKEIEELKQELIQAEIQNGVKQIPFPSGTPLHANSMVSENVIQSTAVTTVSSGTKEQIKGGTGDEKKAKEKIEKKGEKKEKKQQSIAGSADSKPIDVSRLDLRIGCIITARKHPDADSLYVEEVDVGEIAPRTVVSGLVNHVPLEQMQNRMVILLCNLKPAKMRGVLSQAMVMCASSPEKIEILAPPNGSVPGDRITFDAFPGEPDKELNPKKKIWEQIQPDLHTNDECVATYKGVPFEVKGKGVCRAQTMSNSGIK
UniProt O15120: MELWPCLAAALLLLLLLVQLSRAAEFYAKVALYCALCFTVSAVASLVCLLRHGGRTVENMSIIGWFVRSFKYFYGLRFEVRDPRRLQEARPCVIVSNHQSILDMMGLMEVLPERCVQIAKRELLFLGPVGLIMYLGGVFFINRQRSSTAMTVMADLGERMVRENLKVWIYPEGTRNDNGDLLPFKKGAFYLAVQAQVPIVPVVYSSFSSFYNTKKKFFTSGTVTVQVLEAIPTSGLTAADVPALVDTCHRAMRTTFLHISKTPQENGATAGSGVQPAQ
UniProt Q13705: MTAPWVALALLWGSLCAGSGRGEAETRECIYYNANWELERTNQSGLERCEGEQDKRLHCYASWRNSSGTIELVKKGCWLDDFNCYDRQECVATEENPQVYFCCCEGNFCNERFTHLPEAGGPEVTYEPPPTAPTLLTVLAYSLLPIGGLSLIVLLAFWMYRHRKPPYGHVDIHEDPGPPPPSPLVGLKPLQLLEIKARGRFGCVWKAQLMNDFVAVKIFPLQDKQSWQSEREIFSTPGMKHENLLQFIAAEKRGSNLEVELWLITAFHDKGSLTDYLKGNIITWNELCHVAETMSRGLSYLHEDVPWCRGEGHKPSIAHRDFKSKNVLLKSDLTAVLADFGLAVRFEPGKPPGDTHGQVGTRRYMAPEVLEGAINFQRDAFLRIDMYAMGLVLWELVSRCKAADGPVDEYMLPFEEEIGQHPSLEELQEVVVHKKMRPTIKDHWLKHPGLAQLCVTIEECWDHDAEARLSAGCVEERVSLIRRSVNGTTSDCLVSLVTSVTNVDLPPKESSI
UniProt P35611: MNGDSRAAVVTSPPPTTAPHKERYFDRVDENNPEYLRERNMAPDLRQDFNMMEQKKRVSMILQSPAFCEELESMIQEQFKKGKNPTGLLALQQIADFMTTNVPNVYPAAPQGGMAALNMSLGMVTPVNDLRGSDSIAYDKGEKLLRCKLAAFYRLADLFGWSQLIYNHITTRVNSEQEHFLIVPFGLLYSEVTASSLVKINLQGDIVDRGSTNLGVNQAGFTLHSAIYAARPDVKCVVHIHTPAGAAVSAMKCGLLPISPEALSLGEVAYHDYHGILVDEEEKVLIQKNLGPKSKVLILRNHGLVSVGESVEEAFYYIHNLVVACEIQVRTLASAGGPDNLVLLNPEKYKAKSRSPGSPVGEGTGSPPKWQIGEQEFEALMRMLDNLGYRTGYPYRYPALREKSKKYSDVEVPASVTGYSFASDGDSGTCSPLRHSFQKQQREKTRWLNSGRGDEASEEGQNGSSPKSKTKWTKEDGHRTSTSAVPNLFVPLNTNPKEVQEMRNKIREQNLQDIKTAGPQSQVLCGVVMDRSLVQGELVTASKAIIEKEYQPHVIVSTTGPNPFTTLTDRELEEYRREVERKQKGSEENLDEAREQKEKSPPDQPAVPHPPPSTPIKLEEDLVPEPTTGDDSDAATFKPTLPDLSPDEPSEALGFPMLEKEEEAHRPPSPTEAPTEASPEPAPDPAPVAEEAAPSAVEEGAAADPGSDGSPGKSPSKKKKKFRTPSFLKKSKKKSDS
UniProt Q13444: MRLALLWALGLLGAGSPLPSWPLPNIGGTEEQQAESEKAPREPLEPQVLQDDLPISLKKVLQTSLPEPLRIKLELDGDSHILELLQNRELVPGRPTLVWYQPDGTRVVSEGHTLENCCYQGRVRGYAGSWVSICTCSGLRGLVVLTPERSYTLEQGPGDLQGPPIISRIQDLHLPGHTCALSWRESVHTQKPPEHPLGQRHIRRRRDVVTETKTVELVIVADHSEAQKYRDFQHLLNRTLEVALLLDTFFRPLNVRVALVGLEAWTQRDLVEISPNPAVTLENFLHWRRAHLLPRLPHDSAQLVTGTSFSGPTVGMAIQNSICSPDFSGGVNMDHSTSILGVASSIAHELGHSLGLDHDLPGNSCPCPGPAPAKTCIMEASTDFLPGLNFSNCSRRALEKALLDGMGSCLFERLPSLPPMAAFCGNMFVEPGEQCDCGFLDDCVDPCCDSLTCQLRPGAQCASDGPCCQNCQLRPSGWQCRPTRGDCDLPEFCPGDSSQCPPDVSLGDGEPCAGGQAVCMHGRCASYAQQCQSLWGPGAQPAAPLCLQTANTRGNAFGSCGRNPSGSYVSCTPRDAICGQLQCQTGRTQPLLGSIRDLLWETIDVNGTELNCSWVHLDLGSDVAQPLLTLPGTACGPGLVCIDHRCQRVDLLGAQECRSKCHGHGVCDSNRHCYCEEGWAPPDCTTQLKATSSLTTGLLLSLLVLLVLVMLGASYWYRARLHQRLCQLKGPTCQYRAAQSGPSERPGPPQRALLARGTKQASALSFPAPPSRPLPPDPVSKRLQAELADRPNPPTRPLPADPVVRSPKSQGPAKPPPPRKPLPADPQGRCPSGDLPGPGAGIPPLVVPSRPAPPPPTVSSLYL
UniProt Q6UY14: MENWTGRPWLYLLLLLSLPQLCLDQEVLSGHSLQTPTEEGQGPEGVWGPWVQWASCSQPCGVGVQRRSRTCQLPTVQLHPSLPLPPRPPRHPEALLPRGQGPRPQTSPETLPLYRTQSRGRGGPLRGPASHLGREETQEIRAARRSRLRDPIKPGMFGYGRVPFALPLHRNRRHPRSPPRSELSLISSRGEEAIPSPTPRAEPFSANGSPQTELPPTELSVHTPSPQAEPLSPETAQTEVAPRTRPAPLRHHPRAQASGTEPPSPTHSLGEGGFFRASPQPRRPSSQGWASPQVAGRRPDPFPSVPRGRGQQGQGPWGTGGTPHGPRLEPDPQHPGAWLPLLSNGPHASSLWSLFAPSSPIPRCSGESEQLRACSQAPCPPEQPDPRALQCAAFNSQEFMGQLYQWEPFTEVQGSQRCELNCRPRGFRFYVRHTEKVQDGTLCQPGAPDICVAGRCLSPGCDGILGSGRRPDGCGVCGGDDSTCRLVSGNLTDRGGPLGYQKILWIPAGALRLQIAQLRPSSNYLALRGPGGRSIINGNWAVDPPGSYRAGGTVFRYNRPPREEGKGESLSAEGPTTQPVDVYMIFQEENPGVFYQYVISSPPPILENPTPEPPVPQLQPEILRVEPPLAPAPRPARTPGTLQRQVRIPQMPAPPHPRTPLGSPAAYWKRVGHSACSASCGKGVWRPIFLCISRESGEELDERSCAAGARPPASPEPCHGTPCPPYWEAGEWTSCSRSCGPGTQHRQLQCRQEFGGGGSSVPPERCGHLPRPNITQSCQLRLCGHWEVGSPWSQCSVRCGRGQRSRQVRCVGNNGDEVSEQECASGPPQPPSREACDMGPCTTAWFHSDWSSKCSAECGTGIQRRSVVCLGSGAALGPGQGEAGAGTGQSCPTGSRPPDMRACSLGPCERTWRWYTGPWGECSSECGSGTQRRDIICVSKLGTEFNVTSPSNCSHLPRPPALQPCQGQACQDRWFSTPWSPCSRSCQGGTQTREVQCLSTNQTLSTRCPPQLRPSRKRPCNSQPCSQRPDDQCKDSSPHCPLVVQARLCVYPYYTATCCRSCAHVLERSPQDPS
UniProt Q8WV93: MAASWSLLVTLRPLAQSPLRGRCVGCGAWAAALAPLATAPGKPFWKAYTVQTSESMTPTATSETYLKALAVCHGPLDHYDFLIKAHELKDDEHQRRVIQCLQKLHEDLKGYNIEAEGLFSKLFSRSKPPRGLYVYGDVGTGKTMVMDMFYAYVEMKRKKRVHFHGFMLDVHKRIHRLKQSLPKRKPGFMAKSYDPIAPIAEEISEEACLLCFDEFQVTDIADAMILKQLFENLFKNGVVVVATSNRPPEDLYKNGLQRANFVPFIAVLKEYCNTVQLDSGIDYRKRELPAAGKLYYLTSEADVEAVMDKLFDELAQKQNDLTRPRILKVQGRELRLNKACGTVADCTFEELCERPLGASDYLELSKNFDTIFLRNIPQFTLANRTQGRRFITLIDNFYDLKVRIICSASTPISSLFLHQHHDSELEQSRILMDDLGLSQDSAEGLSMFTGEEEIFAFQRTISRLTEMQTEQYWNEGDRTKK
UniProt O43488: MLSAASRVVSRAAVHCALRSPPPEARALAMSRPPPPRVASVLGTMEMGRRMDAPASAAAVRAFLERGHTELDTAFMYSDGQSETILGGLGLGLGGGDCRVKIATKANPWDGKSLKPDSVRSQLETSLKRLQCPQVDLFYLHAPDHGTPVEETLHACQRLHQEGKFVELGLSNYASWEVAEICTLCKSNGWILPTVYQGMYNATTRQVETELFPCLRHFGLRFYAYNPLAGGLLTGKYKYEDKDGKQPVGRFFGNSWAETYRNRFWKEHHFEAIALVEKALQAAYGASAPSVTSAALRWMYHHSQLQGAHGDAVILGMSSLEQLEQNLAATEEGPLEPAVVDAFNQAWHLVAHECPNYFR
UniProt Q04828: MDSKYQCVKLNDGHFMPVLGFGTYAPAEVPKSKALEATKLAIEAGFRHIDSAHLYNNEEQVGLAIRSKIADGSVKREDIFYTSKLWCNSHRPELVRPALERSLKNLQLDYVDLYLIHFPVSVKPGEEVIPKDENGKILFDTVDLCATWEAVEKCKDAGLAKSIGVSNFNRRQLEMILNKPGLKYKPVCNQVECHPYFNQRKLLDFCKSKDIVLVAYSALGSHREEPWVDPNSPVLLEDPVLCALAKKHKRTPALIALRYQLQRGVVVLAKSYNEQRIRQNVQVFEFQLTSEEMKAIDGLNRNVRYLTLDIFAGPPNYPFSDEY
UniProt P14621: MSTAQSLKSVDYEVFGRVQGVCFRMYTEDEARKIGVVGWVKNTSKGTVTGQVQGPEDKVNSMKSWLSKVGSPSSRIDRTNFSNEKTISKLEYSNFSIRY

What was measured:
Experiment in all cases: log2 fold change, soluble protein after heating vs DMSO (PISA); higher = thermal stabilisation; K562 lysate, 10 uM; active = over 0.2 and 3.5 SD of the protein, either way, in both replicates (recomputed)
erlotinib = compound: C#Cc1cccc(Nc2ncnc3cc(OCCOC)c(OCCOC)cc23)c1 [erlotinib]
In short: (§1)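 Following dounce homogenisation of K562 pellets in PBS pH 7.4 with 1 mM MgCl2, crude extract at 1 mg/mL protein was incubated for 30 min with 10 μM compound. Aliquots were then heated for 3 min over 48°C-58°C and pooled, NP-40 was added to 0.5% at 4°C, and soluble protein was recovered as the supernatant at 21,000xg for 90 min. Channel-sum-equalised TMTpro 16plex LC-MS/MS quantified this protein. Each value, from duplicates, is a log-two fold change in thermal stability relative to solvent controls.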

[1] = compound: C/C(=N\NC(=O)C1=CC(=CC=C1)S(=O)(=O)N2CCOCC2)/C3=C(C=CC(=C3)Cl)O
In short: as §1

[2] = compound: C1=CC(=CC=C1C2=NC3=C(N2)C=C(C=C3)C(=O)N)OC4=CC=C(C=C4)Cl
In short: as §1

[3] = compound: C1=CC2=C(C=CC(=C2)/C=C\3/C(=O)NC(=NCC4=CC=CS4)S3)N=C1
In short: as §1

[4] = compound: C1=CC2=NC=CN=C2C=C1/C=C/3\C(=O)NC(=O)S3
In short: as §1

[5] = compound: C1=CC=C(C=C1)C2=NC(=C(N2)C3=CC=NC=C3)C4=CC(=C(C=C4)Cl)O
In short: as §1

[6] = compound: C1=CC=C2C(=C1)C3=NNC4=CC=CC(=C43)C2=O
In short: as §1

[7] = compound: C1CCN(C1)C(=O)NC2=CC=CC(=C2)NC3=NC=C(C(=N3)NCCC4=CN=CN4)Br
In short: as §1

[8] = compound: C1CN(CCC1(CC2=CC=C(C=C2)Cl)N)C3=NC=NC4=C3C=CN4
In short: as §1

IRAK-1-4 Inhibitor I = compound: C1COCCN1CCN2C3=CC=CC=C3N=C2NC(=O)C4=CC(=CC=C4)[N+](=O)[O-] [IRAK-1-4 Inhibitor I]
In short: as §1

ibrutinib = compound: C=CC(=O)N1CCC[C@@H](n2nc(-c3ccc(Oc4ccccc4)cc3)c3c(N)ncnc32)C1 [ibrutinib]
In short: as §1

[9] = compound: CC(=O)c1cnc2ccc(-c3cc(Cl)c(O)c(Cl)c3)nc2c1N[C@H]1CC[C@H](CN(C)C)CC1
In short: as §1

ralimetinib = compound: CC(C)(C)Cn1c(N)nc2ccc(-c3[nH]c(C(C)(C)C)nc3-c3ccc(F)cc3)nc21 [ralimetinib]
In short: as §1

[10] = compound: CC(C)(O)CC(=O)NCCn1ccc2ncnc(Nc3ccc(Oc4cccc(C(F)(F)F)c4)c(Cl)c3)c21
In short: as §1

[11] = compound: CC(C)C1=C2N=C(C=C(N2N=C1)NCC3=CC=CC=C3)NCCCCCCN
In short: as §1

[12] = compound: CC1=C(C(CC(=O)N1)C2=CC=C(C=C2)C(F)(F)F)C(=O)NC3=C(C=C4C(=C3)C=NN4)F
In short: as §1

[13] = compound: CC1=C(C2=C(C=C1)C(=O)C3=CC=CC=C3N2CCCN)C
In short: as §1

[14] = compound: CC1=C(C=C(C=C1)NC(=O)C2=CC(=CC=C2)C(C)(C)C#N)NC3=CC4=C(C=C3)N=CN(C4=O)C
In short: as §1

[15] = compound: CC1=C(C=C(C=C1)NC(=O)C2=CC(=CC=C2)N(C)C)NC(=O)C3=CC=C(C=C3)O
In short: as §1

[16] = compound: CC1=CC=C(C=C1)SC2=C3C=C(SC3=CN=C2)C(=O)N
In short: as §1

Measured: log2 fold change

AKAP9 (UniProt Q99996)
inactive: erlotinib -0.019 | [1] -0.037 | [2] 0.009 | [3] -0.038 | [4] 0.024 | [5] 0.019 | [6] -0.083 | [7] -0.014 | [8] -0.006 | IRAK-1-4 Inhibitor I -0.018 | ibrutinib 0.003 | [9] -0.114 | ralimetinib 0.022 | [10] -0.042 | [11] 0.009 | [12] 0.009 | [13] 0.001 | [14] -0.006 | [15] 0.011 | [16] -0.122

AGO1 (UniProt Q9UL18)
inactive: erlotinib 0.045 | [1] -0.089 | [2] 0.031 | [3] 0.029 | [4] -0.026 | [5] 0.021 | [6] 0.02 | [7] -0.028 | [8] 0.064 | IRAK-1-4 Inhibitor I 0.016 | ibrutinib 0.026 | [9] 0.009 | ralimetinib 0.004 | [10] 0.001 | [11] 0 | [12] 0.006 | [13] -0.043 | [14] -0.025 | [15] -0.005 | [16] 0.009

AGPAT3 isoform 3 (UniProt Q9NRZ7)
inactive: erlotinib 0.056 | [1] 0.046 | [2] -0.084 | [3] 0.05 | [4] 0.023 | [5] -0.004 | [6] -0.077 | [7] -0.036 | [8] 0.013 | IRAK-1-4 Inhibitor I -0.025 | ibrutinib -0.028 | [9] -0.021 | ralimetinib 0.045 | [10] -0.04 | [11] -0.047 | [12] 0.069 | [13] -0.011 | [14] 0.013 | [15] 0.011 | [16] -0.021

AGRN (UniProt O00468)
inactive: erlotinib -0.083 | [1] 0.376 | [2] 0.008 | [3] 0.067 | [4] -0.046 | [5] 0.037 | [6] -0.194 | [7] -0.041 | [8] 0.062 | IRAK-1-4 Inhibitor I 0.09 | ibrutinib 0.123 | [9] 0.059 | ralimetinib -0.005 | [10] -0.09 | [11] -0.017 | [12] -0.006 | [13] 0.037 | [14] 0.03 | [15] 0.045 | [16] -0.066

ACTA1 (UniProt P68133)
inactive: erlotinib 0 | [1] 0.012 | [2] 0.017 | [3] -0.024 | [4] -0.035 | [5] -0.02 | [6] -0.037 | [7] 0.015 | [8] 0.051 | IRAK-1-4 Inhibitor I -0.016 | ibrutinib -0.021 | [9] 0 | ralimetinib -0.006 | [10] -0.018 | [11] 0.037 | [12] -0.03 | [13] -0.005 | [14] -0.011 | [15] 0.01 | [16] -0.002

ACTR1B (UniProt P42025)
inactive: erlotinib 0.003 | [1] -0.082 | [2] 0.063 | [3] 0.102 | [4] -0.004 | [5] 0 | [6] 0.038 | [7] -0.03 | [8] -0.067 | IRAK-1-4 Inhibitor I 0.024 | ibrutinib -0.072 | [9] -0.017 | ralimetinib -0.045 | [10] -0.031 | [11] 0.011 | [12] 0.013 | [13] 0.017 | [14] 0.046 | [15] 0.02 | [16] -0.037

AIF1L (UniProt Q9BQI0)
inactive: erlotinib -0.035 | [2] -0.008 | [4] -0.014 | [5] 0.012 | [7] 0.329 | [8] -0.008 | IRAK-1-4 Inhibitor I -0.049 | ibrutinib 0.169 | [9] 0.032 | ralimetinib 0.029 | [10] -0.003 | [11] -0.105 | [12] -0.012 | [13] 0.159 | [14] -0.014 | [15] -0.005 | [16] -0.013

Quoted from above (4 entries):
AKAP9 (UniProt Q99996)
inactive: erlotinib -0.019 | [1] -0.037 | [2] 0.009 | [3] -0.038 | [4] 0.024 | [5] 0.019 | [6] -0.083 | [7] -0.014 | [8] -0.006 | IRAK-1-4 Inhibitor I -0.018 | ibrutinib 0.003 | [9] -0.114 | ralimetinib 0.022 | [10] -0.042 | [11] 0.009 | [12] 0.009 | [13] 0.001 | [14] -0.006 | [15] 0.011 | [16] -0.122

AGO1 (UniProt Q9UL18)
inactive: erlotinib 0.045 | [1] -0.089 | [2] 0.031 | [3] 0.029 | [4] -0.026 | [5] 0.021 | [6] 0.02 | [7] -0.028 | [8] 0.064 | IRAK-1-4 Inhibitor I 0.016 | ibrutinib 0.026 | [9] 0.009 | ralimetinib 0.004 | [10] 0.001 | [11] 0 | [12] 0.006 | [13] -0.043 | [14] -0.025 | [15] -0.005 | [16] 0.009

AGPAT3 isoform 3 (UniProt Q9NRZ7)
inactive: erlotinib 0.056 | [1] 0.046 | [2] -0.084 | [3] 0.05 | [4] 0.023 | [5] -0.004 | [6] -0.077 | [7] -0.036 | [8] 0.013 | IRAK-1-4 Inhibitor I -0.025 | ibrutinib -0.028 | [9] -0.021 | ralimetinib 0.045 | [10] -0.04 | [11] -0.047 | [12] 0.069 | [13] -0.011 | [14] 0.013 | [15] 0.011 | [16] -0.021

AGRN (UniProt O00468)
inactive: erlotinib -0.083 | [1] 0.376 | [2] 0.008 | [3] 0.067 | [4] -0.046 | [5] 0.037 | [6] -0.194 | [7] -0.041 | [8] 0.062 | IRAK-1-4 Inhibitor I 0.09 | ibrutinib 0.123 | [9] 0.059 | ralimetinib -0.005 | [10] -0.09 | [11] -0.017 | [12] -0.006 | [13] 0.037 | [14] 0.03 | [15] 0.045 | [16] -0.066

The list goes on.

AHI1 (UniProt Q8N157)
inactive: erlotinib -0.098 | [1] 0.068 | [2] -0.264 | [3] 0.031 | [6] -0.312 | [7] -0.036 | [8] 0 | [11] 0.024

AIMP1 isoform 2 (UniProt Q12904)
inactive: erlotinib 0.044 | [1] 0.013 | [2] -0.028 | [3] 0.001 | [4] -0.03 | [5] 0.021 | [6] -0.025 | [7] -0.02 | [8] 0.02 | IRAK-1-4 Inhibitor I 0.01 | ibrutinib 0.009 | [9] 0.012 | ralimetinib 0.026 | [10] 0.018 | [11] 0.022 | [12] -0.026 | [13] 0.005 | [14] -0.014 | [15] -0.006 | [16] 0.006

AGPAT2 (UniProt O15120)
inactive: erlotinib -0.032 | [1] -0.064 | [2] 0.013 | [3] 0.245 | [5] -0.114 | [6] 0.024 | [7] -0.038 | [8] 0.069 | IRAK-1-4 Inhibitor I -0.027 | ralimetinib 0.1 | [10] -0.071 | [11] 0.046 | [12] 0.03 | [14] -0.064 | [15] 0.013

ACVR2B (UniProt Q13705)
inactive: erlotinib -0.011 | [1] 0.127 | [2] 0.171 | [3] -0.228 | [6] -0.161 | [11] 0.099

ADD1 isoform 4 (UniProt P35611)
inactive: erlotinib -0.016 | [1] -0.059 | [2] 0.011 | [3] 0.089 | [4] -0.088 | [5] -0.081 | [6] -0.025 | [7] 0.028 | [8] -0.009 | IRAK-1-4 Inhibitor I 0.093 | ibrutinib 0.214 | [9] 0.003 | ralimetinib -0.104 | [10] -0.356 | [11] 0.056 | [13] 0.004 | [15] 0.017 | [16] -0.341

ADAM15 (UniProt Q13444)
inactive: erlotinib 0.048 | [2] -0.062 | [4] 0.012 | [5] -0.011 | IRAK-1-4 Inhibitor I -0.006 | ibrutinib 0.013 | [9] -0.158 | ralimetinib 0.006 | [10] -0.142 | [11] -0.168 | [13] 0.079 | [14] -0.11 | [15] -0.043 | [16] -0.161

ADAMTSL4 isoform 3 (UniProt Q6UY14)
inactive: erlotinib -0.096 | [2] 0.032 | [4] 0.021 | [5] 0.023 | IRAK-1-4 Inhibitor I -0.052 | ibrutinib -0.073 | [9] 0.021 | ralimetinib 0.012 | [10] -0.058 | [11] 0.069 | [12] -0.074 | [13] 0.041 | [14] -0.052 | [15] 0.022 | [16] -0.041

ADD2 isoform 9 (UniProt P35612)
inactive: erlotinib -0.111 | [1] -0.031 | [2] -0.033 | [3] -0.17 | [5] 0.075 | [6] 0.041 | [7] -0.064 | [8] 0.006 | IRAK-1-4 Inhibitor I 0.076 | [9] 0.038 | ralimetinib 0.025 | [10] -0.244 | [11] -0.013 | [12] 0.098 | [13] -0.001 | [15] -0.054 | [16] 0.253

AFG1L (UniProt Q8WV93)
inactive: erlotinib -0.042 | [2] 0.069 | [5] 0.101 | [7] 0.257 | [8] -0.179 | IRAK-1-4 Inhibitor I -0.044 | [9] 0.043 | ralimetinib -0.033 | [10] 0.081 | [11] 0.01 | [12] -0.062 | [13] -0.03 | [14] 0.094 | [15] 0.064 | [16] -0.006

AKR7A2 (UniProt O43488)
inactive: erlotinib -0.003 | [1] 0.045 | [2] 0.034 | [3] 0.012 | [4] 0.021 | [5] 0.044 | [6] 0.003 | [7] -0.007 | [8] 0.051 | IRAK-1-4 Inhibitor I 0.025 | ibrutinib -0.025 | [9] 0.026 | ralimetinib -0.013 | [10] -0.009 | [11] 0.025 | [12] 0.001 | [13] 0.01 | [14] -0.044 | [15] 0 | [16] -0.024

AKR1C1 (UniProt Q04828)
inactive: erlotinib 0.082 | [1] 0.067 | [2] -0.031 | [3] -0.113 | [5] 0.05 | [6] -0.112 | [7] 0.018 | [8] -0.001 | IRAK-1-4 Inhibitor I -0.062 | [9] -0.038 | ralimetinib -0.116 | [10] 0.02 | [11] 0.065 | [13] -0.21 | [15] 0.001 | [16] -0.012

ACYP2 (UniProt P14621)
inactive: erlotinib -0.057 | [1] 0.256 | [2] 0.007 | [3] -0.176 | [4] 0.002 | [5] -0.049 | [6] -0.185 | IRAK-1-4 Inhibitor I -0.011 | ibrutinib 0.086 | [9] 0.004 | ralimetinib 0.026 | [10] -0.018 | [11] 0.044 | [12] 0.047 | [14] -0.036 | [15] 0.025 | [16] 0.04
